Results published in patent US11299472B2, “Fumarate salt of (R)-3-(1-(2,3-dichloro-4-(pyrazin-2-yl)phenyl)-2,2,2- trifluoroethyl)-1-methyl-1-(1-methylpiperidin-4-yl) urea, methods of preparation, and uses thereof” (Helsinn Healthcare SA, priority 2017, dated 2022).
The name of at least one read-out is uncertain.

Test: Rat pharmacokinetic study, single oral HM04 fumarate salt 3, 10, 30 mg/kg (Example 10)
Assay type: in vivo, male Sprague Dawley rats
Conditions: single oral 3, 10, and 30 mg/kg
Description: The pharmacokinetics of HM04 in plasma after single oral administration of HM04 fumarate salt to 6-week old male Sprague Dawley rats and male Beagle dogs (1-5 years of age) was investigated. Test formulations of 0.6 mg/mL, 2 mg/mL, and 6 mg/mL HM04 fumarate salt (based on weight of the free base) were prepared in 5% glucose solution. Doses of 3, 10, and 30 mg/kg HM04 fumarate salt (based on weight of the free base) were administered by gastric gavage as a 5 mL/kg dose volume of each of the three test formulations. Four animals were in each dose group. The formulation was administered to the dogs in fasting conditions with food provided three hours post-dosing.
A comparison of the plasma concentration of HM04 (ng/mL) in rats over time is provided in FIG. 19 and a summary of the pharmacokinetic analysis is provided in Table 5, below. […] The standard deviation associated with the mean oral bioavailability was calculated according to the formula: SDq=[^2√{square root over ((my^2·SDx^2+mx^2−SDy^2))}]/my^2 where q=mean bioavailability; mx=oral dose-normalized mean AUC, and my=IV dose-normalized mean AUC.
Plasma HM04 concentrations were measured by LC-MS/MS following protein precipitation in the 96-well plate format. At the time of analysis samples were thawed out at ambient temperature. […]

## CN1CCC(N(C)C(=O)N[C@H](c2ccc(-c3cnccn3)c(Cl)c2Cl)C(F)(F)F)CC1 [HM04, (R)-3-(1-(2,3-dichloro-4-(pyrazin-2-yl)phenyl)-2,2,2-trifluoroethyl)-1-methyl-1-(1-methylpiperidin-4-yl)urea]
  time to attain Cmax: ≤ 4 h
